Source: PubChem BioAssay AID493014 (National Center for Advancing Translational Sciences (NCATS), 2011)
The other results are listed elsewhere or left out. These are further read-outs of the screen, such as a control signal, another cell line or another target. No call is given for them. The list favours compounds with an active or inconclusive main result. Potencies come from curve fits of mixed quality, noted in brackets.

Assay: qHTS Assay to Find Inhibitors of Chronic Active B-Cell Receptor Signaling
Settings: ABC-DLBCL IkBa-CBG/CBR reporter, luminescence ratio (green luciferase fused to IkBa over red control in TMD8 lymphoma cells), 4 h
How it was run: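 Cell line TMD8 (human ABC DLBCL), stably expressing tet-inducible CBG68-IkBa fusion and CBR; IMDM/0.5% FBS; cpd up to 46 uM; dox induction, 4 h, 37C/5% CO2; dual luminescence; green/red ratio; MG132 control.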

[1] = measured here: CBR red luminescence, cell number
[2] = measured here: IkBa-CBG green luminescence

| SMILES | AC50 [1] | AC50 [2] |
| --- | --- | --- |
| O=C1OCCC1Sc1nnc(-c2cccc(Br)c2)o1 (stereo not given) | 25.9 µM [falling, partial curve, poor fit] |  |
| Cn1nnc2c(NCc3ccc(Cl)cc3)ncnc21 | 22.4 µM [falling, single point] |  |
| O=C(NC1CCCCC1)N1CCN(C(c2ccccc2)c2ccccc2)CC1 | 29.1 µM [falling, single point] |  |
| N=c1scc(-c2ccccc2)n1/N=C/c1ccco1 | 11.6 µM [falling, partial curve, poor fit] | 20.6 µM [rising, partial curve, poor fit] |
| O=C(c1ccc(F)cc1)n1ccc(-c2cnc(-c3ccccc3)s2)n1 | 16.4 µM [falling, single point] |  |
| O=C(NCc1ccco1)C1CC(c2ccccc2O)=NO1 (stereo not given) | 10 µM [falling, partial curve] |  |
| CCc1nnc(NC(=O)CCC(=O)N2CCN(C3c4ccccc4-c4ccccc43)CC2)s1 | 4.11 µM [rising, partial curve, poor fit] |  |
| Cc1nnc(SC(C)C(=O)NCC2CCCO2)s1 (stereo not given) | 29.1 µM [rising, single point] |  |
| Cc1cccc(N=C2NC(=O)/C(=C/c3cccnc3)S2)c1C | 12.6 µM [falling, partial curve, poor fit] |  |
| Cn1c(=O)c(C(=O)Nc2ccccn2)c(O)c2ccccc21 | 7.94 µM [falling, partial curve, poor fit] |  |
| Cc1cc(C(C)(C)C)oc1C(=O)N(CC(=O)NC1CCCC1)c1c(C)cccc1C | 14.6 µM [falling, single point] |  |
| CCc1ccc(-c2cc(C(=O)NN3CCOCC3)c3ccccc3n2)s1 | 11.2 µM [rising, partial curve, poor fit] |  |
| O=C(COc1ccc([N+](=O)[O-])cc1)N1CCc2ccccc2C1 | 20 µM [rising, single point] |  |
| OCCCNc1nc(-c2ccc(Cl)cc2)nnc1-c1ccc(Br)cc1 | 14.6 µM [falling, partial curve] |  |
| O=C(O)c1ccc(-c2nc3scc(-c4ccccc4)c3c(=O)[nH]2)cc1 | 2 µM [falling, full curve, poor fit] |  |
| Cc1ccc(C(C)C)c(OCc2nn(CC(=O)c3ccc(OC(F)F)cc3)c3[n+]2CCCCC3)c1 | 12.6 µM [falling, partial curve, poor fit] |  |
| Cc1ccc(NC2=CC(=O)CC(c3ccccc3)C2)cc1 (stereo not given) | 13 µM [rising, partial curve, poor fit] |  |
| COc1ccc(/C=C/C(=O)ONC2=NCCCCC2)cc1OC | 35.5 µM [rising, single point] |  |
| Cc1sc2ncnc(N3CCC(C(=O)Nc4nc(-c5ccc(F)cc5)cs4)CC3)c2c1C | 5.8 µM [rising, full curve] |  |
| COC(=O)c1sc(-c2ccc(Cl)cc2)cc1N | 0.316 µM [rising, full curve, poor fit] |  |
| COc1c(C)cc(C(=O)C2CCCN(C(=O)c3cc(C)n(C)n3)C2)cc1C (stereo not given) | 4.47 µM [rising, full curve, poor fit] |  |
| CC(=O)C1(C)N(O)C(C)(C)C(c2cccs2)=[N+]1[O-] (stereo not given) | 3.55 µM [falling, partial curve, poor fit] |  |

| SMILES | AC50 [1] | AC50 [2] |
| --- | --- | --- |
| COc1ccccc1OCCOc1ccc(/C=N/n2cnnc2)cc1 | 20.6 µM [rising, single point] |  |
| CC(C)c1cc(C(=O)NC2CCCCC2)no1 | 8.2 µM [falling, partial curve] |  |
| CCCCNC(=O)CSc1nc2cc3c(cc2c(=O)n1CCCC(=O)NCCc1ccc(OC)c(OC)c1)OCO3 | 0.282 µM [rising, full curve, poor fit] |  |
| Cc1ccc(S(=O)(=O)Nc2c(C)nc3nc(C)[nH]n3c2=O)cc1 | 0.447 µM [falling, partial curve, poor fit] |  |
| CCc1ccc2oc(=O)cc(CN3CCN(c4ccc(F)cc4)CC3)c2c1 | 14.1 µM [falling, partial curve, poor fit] |  |
| CCN(CC)S(=O)(=O)c1ccc2[nH]cc(C(=O)NCCc3ccc(OC)c(OC)c3)c(=O)c2c1 | 2.31 µM [rising, partial curve, poor fit] |  |
| O=C(COC(=O)CCC(=O)c1ccc(Cl)cc1)NCc1ccco1 | 35.5 µM [falling, single point] |  |
| C[N+](C)(C)CC(=O)N1CCN(c2ccc3ccccc3n2)CC1 | 17.8 µM [rising, single point] |  |
| Cn1c(CCN2CCCCC2)nc2cc(NC(=O)C3CCCCC3)ccc21 | 14.1 µM [falling, partial curve, poor fit] |  |
| COC(=O)c1ccccc1NC(=O)c1ccc(COc2cccc3ccccc23)o1 | 4.61 µM [falling, full curve, poor fit] |  |
| COc1cc(/C=C(\C#N)c2nc3ccccc3[nH]2)ccc1Oc1ccc([N+](=O)[O-])cn1 | 3.16 µM [falling, partial curve] |  |
| CS(=O)(=O)c1ccc(S(=O)CC(=O)Oc2ccc(Cl)cc2)c([N+](=O)[O-])c1 (stereo not given) |  | 35.5 µM [falling, partial curve, poor fit] |
| CCN(CC)c1ccc(/C=N/NC(=O)c2cc(C)nc3ccccc23)cc1 | 11.2 µM [rising, partial curve, poor fit] |  |
| COc1ccc(S(=O)(=O)N2CCC(C(=O)N(C)Cc3ccc(C)o3)CC2)cc1OC | 18.4 µM [rising, partial curve, poor fit] |  |
| O=S(=O)(c1cccs1)N1CCN(S(=O)(=O)c2cccs2)CC1 | 11.2 µM [rising, single point] |  |
| Cc1cccc(C(=O)Nc2ccc(O)cc2C(=O)O)c1 | 0.316 µM [falling, full curve] |  |
| Cc1cccc(C(=O)NCC(=O)NC(C)CCc2ccccc2)c1 (stereo not given) | 20 µM [falling, single point] |  |
| COc1ccc(C(=O)O/N=C(\N)c2ccccn2)c(OC)c1 | 0.398 µM [falling, full curve] |  |
| C=CC(=O)Nc1ccc(N(C)c2ccnc(Nc3ccc(N4CCN(C)CC4)cc3)n2)cc1 | 16.4 µM [falling, single point] |  |
| CN(CC(=O)Nc1cccc(F)c1)C(=O)CNC(=O)Cc1cccc2ccccc12 | 0.58 µM [rising, full curve, poor fit] |  |
| CC(=O)NC(=S)Nc1sc2c(c1C(N)=O)CCC(C)C2 (stereo not given) | 35.5 µM [rising, single point] |  |
| Cc1cc(=O)oc2cc(OCc3ccc(C(=O)OCC(=O)NC4CCS(=O)(=O)C4)cc3)ccc12 (stereo not given) | 7.08 µM [falling, full curve, poor fit] |  |

Some of these compounds in order of length of the SMILES, high to low.

| SMILES | AC50 [1] | AC50 [2] |
| --- | --- | --- |
| CS(=O)(=O)c1ccc(S(=O)CC(=O)Oc2ccc(Cl)cc2)c([N+](=O)[O-])c1 (stereo not given) |  | 35.5 µM [falling, partial curve, poor fit] |
| CN(CC(=O)Nc1cccc(F)c1)C(=O)CNC(=O)Cc1cccc2ccccc12 | 0.58 µM [rising, full curve, poor fit] |  |
| CCN(CC)c1ccc(/C=N/NC(=O)c2cc(C)nc3ccccc23)cc1 | 11.2 µM [rising, partial curve, poor fit] |  |
| Cc1cccc(N=C2NC(=O)/C(=C/c3cccnc3)S2)c1C | 12.6 µM [falling, partial curve, poor fit] |  |
| N=c1scc(-c2ccccc2)n1/N=C/c1ccco1 | 11.6 µM [falling, partial curve, poor fit] | 20.6 µM [rising, partial curve, poor fit] |
| CC(C)c1cc(C(=O)NC2CCCCC2)no1 | 8.2 µM [falling, partial curve] |  |

Next part:

| SMILES | AC50 [1] | AC50 [2] |
| --- | --- | --- |
| COC(=O)CNC(=O)CSc1nc(N)cc(=O)[nH]1 | 0.82 µM [rising, partial curve, poor fit] |  |
| Cc1ccc(CNC(=O)Nc2ccc(Cl)cc2)cc1 | 0.398 µM [rising, full curve, poor fit] |  |
| Cc1ccc(NS(=O)(=O)c2ccc(N/N=C/c3ccncc3)c([N+](=O)[O-])c2)c(C)c1 | 20.6 µM [rising, single point] |  |
| COc1cc(/C=C2\NC(=S)NC2=O)ccc1OCc1cccc(C(=O)O)c1 | 10 µM [falling, partial curve] |  |
| CC(C(=O)NCc1ccccc1)N(Cc1ccccc1Cl)C(=O)c1snc(C(N)=O)c1N (stereo not given) | 0.891 µM [falling, full curve] |  |
| CCOC(=O)c1sc(NC(=O)/C=C/c2ccc(F)cc2)nc1C | 0.282 µM [falling, full curve, poor fit] |  |
| Cc1ccnc(NC(=S)NC(=O)c2cncc(Br)c2)c1 | 1.64 µM [rising, full curve, poor fit] |  |
| CCOc1ccc(C2=CS/C(=C(\C#N)c3nnc4n3CCCCC4)N2CC)cc1 | 3.66 µM [falling, full curve, poor fit] |  |
| COc1ccccc1-c1nnc(NC(=O)c2ccc(S(=O)(=O)N(C)C)cc2)o1 | 3.26 µM [falling, partial curve, poor fit] |  |
| Nc1ccc2nc(CCCO)[nH]c2c1 | 17.8 µM [falling, single point] |  |
| CCOC(=O)c1cnn(-c2nc3c(C)cccc3s2)c1C | 10.3 µM [rising, partial curve] |  |
| Nc1cc(OC(=O)c2cccs2)nn1S(=O)(=O)c1ccccc1 | 20.6 µM [falling, partial curve, poor fit] |  |
| Cc1ccsc1C=Nc1ccc(O)cc1 | 6.31 µM [falling, single point] |  |
| Cc1ccn2c(NCc3ccccc3)c(-c3cccc(SC4CCCCC4)c3)nc2c1 | 29.1 µM [falling, single point] |  |
| O=C(CSc1ccccc1)NCc1ccc(F)cc1 | 1 µM [rising, full curve, poor fit] |  |
| COc1ccc(S(=O)(=O)CCC(=O)N(C)c2ccc(OC)cc2OC)cc1 | 29.1 µM [rising, single point] |  |
| COc1cc(OC)c(NC(=O)c2cc(S(=O)(=O)N3CCOCC3)cn2C)cc1Cl | 6.31 µM [rising, single point] |  |
| CC(=O)c1ccc(OCc2cc(C(=O)NC3CCCCC3)no2)cc1 | 5.01 µM [falling, full curve] |  |
| CCOc1ccccc1N | 29.1 µM [falling, single point] |  |
| COc1ccccc1C(=O)n1nc(-c2ccccc2)nc1N | 4.61 µM [falling, full curve, poor fit] |  |
